Reference: patent publication US12583855B2, “RET selective inhibitor, preparation method therefor and use thereof” (SHOUYAO HOLDINGS (BEIJING) CO., LTD., priority 2019, dated 2026)
The structures given here were assigned with low confidence; some may be wrong.

Key:
[1] = system: KIF5B-RET/HEK293T cells; experiment: Cell proliferation activity in KIF5B-RET/HEK293T cells (Cell-Titer Glo); settings: read-out: KIFSB-RETV^804M/293T (Cell)IC50, 72 h
[2] = system: TT cells; experiment: TT cell proliferation activity (Cell-Titer Glo); settings: read-out: TT (Cell) IC50, TT human thyroid carcinoma cells, 120 h

CSc1ccc(CN2CCN(c3ccc(-c4cc(-c5cnn(C)c5)cn5ncc(C#N)c45)cn3)CC2)cn1 [Example 10, 6-(1-methyl-1Hpyrazol-4-yl)-4-(6-(4-((6-(methylthio)pyridin-3-yl)methyl)piperazin-1-yl)pyridin-3-yl)pyrazolo[1,5-a]pyridine-3-carbonitrile]
IC50 [1]: 352 nM | IC50 [2]: 17.1 nM
